Changes are numbered by the printed parent chain. Names and notes keep the numbering of the source. These are yes or no findings as the source states them, for the method shown. Some entries that bind do so weakly or less than the wild type.
T1: human small heat shock protein HspB8 (Hsp22), wild type (human), Q9UJY1
T1 chain: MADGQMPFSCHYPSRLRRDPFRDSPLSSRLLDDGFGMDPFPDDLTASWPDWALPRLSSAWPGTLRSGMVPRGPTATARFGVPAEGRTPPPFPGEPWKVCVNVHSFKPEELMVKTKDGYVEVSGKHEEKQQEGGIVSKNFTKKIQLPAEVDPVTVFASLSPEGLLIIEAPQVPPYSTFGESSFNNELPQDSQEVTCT

T2: yeast alcohol dehydrogenase (yeast) (UniProt P00330)
T2 sequence: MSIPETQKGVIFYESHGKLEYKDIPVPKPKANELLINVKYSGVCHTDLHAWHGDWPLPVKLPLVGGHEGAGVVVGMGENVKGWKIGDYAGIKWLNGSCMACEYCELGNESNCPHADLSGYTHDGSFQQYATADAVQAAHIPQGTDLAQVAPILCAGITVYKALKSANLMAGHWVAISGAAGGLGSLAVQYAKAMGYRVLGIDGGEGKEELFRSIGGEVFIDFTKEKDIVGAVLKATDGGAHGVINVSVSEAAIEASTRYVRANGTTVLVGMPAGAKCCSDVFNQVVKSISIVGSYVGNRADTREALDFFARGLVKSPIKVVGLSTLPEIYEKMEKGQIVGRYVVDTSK

B1: human small heat shock protein HspB8 (Hsp22), wild type, Q9UJY1 1-196 (protein)
chain: T1 chain
B2: human small heat shock protein HspB8 (Hsp22), wild type (protein, UniProt Q9UJY1 1-196)
chain: T1 chain
B3: HspB8 Δ28–32 mutant (natural protein, human, UniProt Q9UJY1 1-196, looked up)
chain: MADGQMPFSCHYPSRLRRDPFRDSPLSDGFGMDPFPDDLTASWPDWALPRLSSAWPGTLRSGMVPRGPTATARFGVPAEGRTPPPFPGEPWKVCVNVHSFKPEELMVKTKDGYVEVSGKHEEKQQEGGIVSKNFTKKIQLPAEVDPVTVFASLSPEGLLIIEAPQVPPYSTFGESSFNNELPQDSQEVTCT
notes: human HspB8 (Hsp22), Uniprot Q9UJY1, with the pentapeptide 28SRLLD32 deleted; calculated Mw of monomer 21.0 kDa; Made by PCR from the HspB8 WT cDNA and ligated into pET23 via NdeI and XhoI; No tag is named; also called Δ mutant; deletion mutant of HspB8
B4: HspB8 R29A mutant (natural protein, human, UniProt Q9UJY1 1-196, looked up)
chain: T1 chain with R29A
notes: human HspB8 (Hsp22), Uniprot Q9UJY1, carrying the R29A mutation; calculated Mw of monomer 21.5 kDa; No tag is named

Legend:
[1] = biological target: T1, human small heat shock protein HspB8 …; assay: SEC-MALS; Superdex 200 Increase 10/30; 20 mM Tris/acetate pH 7.6, 150 mM NaCl, 0.1 mM EDTA, 0.1 mM PMSF, 2 mM DTT; 200–250 μg of HspB8 WT or R29A, or 400 μg of Δ28–32 loaded; both purified; details: remark: other sources report otherwise
[2] = biological target: human small heat shock protein HspB8 (Hsp22), wild type (human) (UniProt Q9UJY1); assay: SEC; size-exclusion chromatography in the presence of 6 M guanidinium chloride; apparent Mw from column calibration; both purified
[3] = biological target: T2, yeast alcohol dehydrogenase (yeast); assay: co-sedimentation; yADH 0.16 mg/ml with HspB8 species 0.32 mg/ml in phosphate-buffered saline, 42°C, aggregation induced by DTT; samples centrifuged after incubation and the pellet analysed; both purified
[4] = biological target: HspB8 Δ28–32 mutant (human) (UniProt Q9UJY1); assay: SEC; size-exclusion chromatography in the presence of 6 M guanidinium chloride; apparent Mw from column calibration; both purified
[5] = biological target: HspB8 R29A mutant (human) (UniProt Q9UJY1); assay: as above

| Binder | binding [1] | binding [2] | binding [3] | binding [4] | binding [5] |
| --- | --- | --- | --- | --- | --- |
| B1 | binds | – | – | – | – |
| B2 | – | no binding (condition: in 6 M guanidinium chloride) | binds | – | – |
| B3 | – | – | binds | no binding (condition: in 6 M guanidinium chloride) | – |
| B4 | – | – | no binding | – | no binding (condition: in 6 M guanidinium chloride) |

Reference: article PMC8213154, “Replacement of Arg in the conserved N-terminal RLFDQxFG motif affects physico-chemical properties and chaperone-like activity of human small heat shock protein HspB8 (Hsp22)” (PLoS ONE, 2021)
